# Measurements taken from the supplement of paper PMC10849652.
# Amino acid sequences for entries named in this document (tags omitted). A change or cut given only in a name is not applied to a line headed by its entry.
# UniProt P10398: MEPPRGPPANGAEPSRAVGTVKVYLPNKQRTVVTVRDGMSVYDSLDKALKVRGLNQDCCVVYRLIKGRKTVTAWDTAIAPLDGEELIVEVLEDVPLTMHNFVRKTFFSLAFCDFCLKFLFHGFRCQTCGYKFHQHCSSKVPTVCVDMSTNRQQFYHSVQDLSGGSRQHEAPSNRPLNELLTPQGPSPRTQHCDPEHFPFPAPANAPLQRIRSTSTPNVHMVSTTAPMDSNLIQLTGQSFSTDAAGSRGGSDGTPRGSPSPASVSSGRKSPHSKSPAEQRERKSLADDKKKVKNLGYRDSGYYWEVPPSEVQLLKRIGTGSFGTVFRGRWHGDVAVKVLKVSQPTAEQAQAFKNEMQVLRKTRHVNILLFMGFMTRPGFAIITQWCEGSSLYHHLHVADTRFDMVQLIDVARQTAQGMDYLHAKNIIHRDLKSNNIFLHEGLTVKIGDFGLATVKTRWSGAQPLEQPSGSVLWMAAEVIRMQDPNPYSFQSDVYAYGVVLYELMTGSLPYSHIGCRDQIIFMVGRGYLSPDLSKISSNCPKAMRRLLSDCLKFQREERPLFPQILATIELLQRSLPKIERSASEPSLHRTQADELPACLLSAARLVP
# UniProt Q9UKG1: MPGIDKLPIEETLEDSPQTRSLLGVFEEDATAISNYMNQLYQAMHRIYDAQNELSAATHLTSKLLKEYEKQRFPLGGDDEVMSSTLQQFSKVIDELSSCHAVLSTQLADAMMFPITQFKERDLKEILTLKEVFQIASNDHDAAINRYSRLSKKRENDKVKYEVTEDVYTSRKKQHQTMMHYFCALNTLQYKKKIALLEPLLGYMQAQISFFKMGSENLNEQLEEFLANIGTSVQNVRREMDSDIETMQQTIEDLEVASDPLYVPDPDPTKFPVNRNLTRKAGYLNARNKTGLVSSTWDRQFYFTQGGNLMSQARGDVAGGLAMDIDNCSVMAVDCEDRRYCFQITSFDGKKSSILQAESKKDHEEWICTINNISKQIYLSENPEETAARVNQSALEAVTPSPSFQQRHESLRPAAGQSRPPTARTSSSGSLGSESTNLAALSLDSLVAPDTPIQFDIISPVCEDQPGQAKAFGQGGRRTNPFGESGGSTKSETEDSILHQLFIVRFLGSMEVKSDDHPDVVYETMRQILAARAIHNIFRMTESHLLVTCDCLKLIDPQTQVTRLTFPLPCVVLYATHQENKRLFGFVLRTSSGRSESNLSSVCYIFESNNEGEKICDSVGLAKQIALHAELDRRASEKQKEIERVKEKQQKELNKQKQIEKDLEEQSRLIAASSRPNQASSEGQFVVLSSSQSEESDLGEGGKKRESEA
# UniProt P18085: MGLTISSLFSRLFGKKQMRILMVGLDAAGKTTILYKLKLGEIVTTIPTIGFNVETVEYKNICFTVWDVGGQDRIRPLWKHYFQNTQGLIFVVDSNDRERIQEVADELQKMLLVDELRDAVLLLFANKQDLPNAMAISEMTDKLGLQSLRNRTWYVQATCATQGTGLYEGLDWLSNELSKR
# UniProt P15144: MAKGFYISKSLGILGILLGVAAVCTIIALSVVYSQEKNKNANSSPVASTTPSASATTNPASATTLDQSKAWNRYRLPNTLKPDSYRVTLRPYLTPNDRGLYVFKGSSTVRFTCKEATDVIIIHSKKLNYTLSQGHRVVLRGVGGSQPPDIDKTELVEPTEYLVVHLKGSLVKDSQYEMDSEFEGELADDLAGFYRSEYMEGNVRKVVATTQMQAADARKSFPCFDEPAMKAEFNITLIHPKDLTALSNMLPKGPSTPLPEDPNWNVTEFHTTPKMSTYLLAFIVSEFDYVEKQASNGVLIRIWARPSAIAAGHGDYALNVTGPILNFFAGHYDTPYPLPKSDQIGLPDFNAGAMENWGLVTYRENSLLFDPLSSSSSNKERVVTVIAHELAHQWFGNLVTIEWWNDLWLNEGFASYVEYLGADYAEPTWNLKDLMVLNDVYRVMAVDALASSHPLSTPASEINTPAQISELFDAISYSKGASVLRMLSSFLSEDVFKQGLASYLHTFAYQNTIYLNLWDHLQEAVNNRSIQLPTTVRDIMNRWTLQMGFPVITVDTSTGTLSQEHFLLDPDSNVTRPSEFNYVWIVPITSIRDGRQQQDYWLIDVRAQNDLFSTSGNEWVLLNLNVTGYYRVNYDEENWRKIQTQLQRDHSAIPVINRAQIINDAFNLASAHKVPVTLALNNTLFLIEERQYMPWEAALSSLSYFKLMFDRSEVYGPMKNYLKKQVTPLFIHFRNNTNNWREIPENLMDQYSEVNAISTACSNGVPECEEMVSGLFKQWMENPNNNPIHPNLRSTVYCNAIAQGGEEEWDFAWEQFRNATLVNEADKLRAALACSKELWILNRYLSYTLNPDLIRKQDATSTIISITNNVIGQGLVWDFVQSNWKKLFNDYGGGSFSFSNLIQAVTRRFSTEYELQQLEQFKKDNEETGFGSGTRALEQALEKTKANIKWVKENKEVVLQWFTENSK
# UniProt Q9P2R3: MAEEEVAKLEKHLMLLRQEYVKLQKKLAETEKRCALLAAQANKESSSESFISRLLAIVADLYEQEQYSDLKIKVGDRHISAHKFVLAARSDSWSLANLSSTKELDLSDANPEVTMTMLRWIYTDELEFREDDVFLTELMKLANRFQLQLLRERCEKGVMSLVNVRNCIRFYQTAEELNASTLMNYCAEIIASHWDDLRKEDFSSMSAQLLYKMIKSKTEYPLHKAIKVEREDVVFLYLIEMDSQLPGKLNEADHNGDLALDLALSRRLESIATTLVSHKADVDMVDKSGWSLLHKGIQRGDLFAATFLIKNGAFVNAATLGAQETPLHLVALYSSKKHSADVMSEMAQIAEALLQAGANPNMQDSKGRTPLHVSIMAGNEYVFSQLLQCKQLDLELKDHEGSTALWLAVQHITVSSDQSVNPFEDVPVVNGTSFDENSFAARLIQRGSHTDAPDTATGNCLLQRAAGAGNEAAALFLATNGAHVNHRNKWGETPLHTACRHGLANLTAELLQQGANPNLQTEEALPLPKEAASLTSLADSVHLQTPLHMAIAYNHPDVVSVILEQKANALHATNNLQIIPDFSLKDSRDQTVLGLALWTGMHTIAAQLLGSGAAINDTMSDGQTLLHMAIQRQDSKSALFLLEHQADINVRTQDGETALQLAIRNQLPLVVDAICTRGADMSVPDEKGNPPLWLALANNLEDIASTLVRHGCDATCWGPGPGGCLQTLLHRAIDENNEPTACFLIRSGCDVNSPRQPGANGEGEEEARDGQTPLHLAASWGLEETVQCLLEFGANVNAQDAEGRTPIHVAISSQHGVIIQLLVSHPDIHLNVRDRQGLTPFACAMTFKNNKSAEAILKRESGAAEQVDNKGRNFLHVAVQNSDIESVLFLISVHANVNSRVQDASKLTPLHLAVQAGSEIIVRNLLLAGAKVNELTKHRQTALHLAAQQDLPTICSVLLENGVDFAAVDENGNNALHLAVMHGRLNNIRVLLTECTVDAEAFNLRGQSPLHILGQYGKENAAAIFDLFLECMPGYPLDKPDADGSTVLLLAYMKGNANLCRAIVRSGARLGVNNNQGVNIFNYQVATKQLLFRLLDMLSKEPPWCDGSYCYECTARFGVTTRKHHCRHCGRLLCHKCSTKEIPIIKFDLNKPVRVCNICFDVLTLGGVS
# UniProt P53680: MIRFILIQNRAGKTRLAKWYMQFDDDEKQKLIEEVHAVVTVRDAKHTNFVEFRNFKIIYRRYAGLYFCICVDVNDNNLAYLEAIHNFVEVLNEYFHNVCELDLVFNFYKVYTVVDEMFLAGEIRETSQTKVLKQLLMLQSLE
# UniProt Q86W74: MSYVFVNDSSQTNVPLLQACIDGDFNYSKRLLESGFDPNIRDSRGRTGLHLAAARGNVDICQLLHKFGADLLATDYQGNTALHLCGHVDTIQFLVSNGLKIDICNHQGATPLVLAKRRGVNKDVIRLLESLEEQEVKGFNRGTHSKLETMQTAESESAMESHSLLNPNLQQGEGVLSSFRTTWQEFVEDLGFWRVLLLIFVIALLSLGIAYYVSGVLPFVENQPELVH
# UniProt O94973, whole entry, looked up: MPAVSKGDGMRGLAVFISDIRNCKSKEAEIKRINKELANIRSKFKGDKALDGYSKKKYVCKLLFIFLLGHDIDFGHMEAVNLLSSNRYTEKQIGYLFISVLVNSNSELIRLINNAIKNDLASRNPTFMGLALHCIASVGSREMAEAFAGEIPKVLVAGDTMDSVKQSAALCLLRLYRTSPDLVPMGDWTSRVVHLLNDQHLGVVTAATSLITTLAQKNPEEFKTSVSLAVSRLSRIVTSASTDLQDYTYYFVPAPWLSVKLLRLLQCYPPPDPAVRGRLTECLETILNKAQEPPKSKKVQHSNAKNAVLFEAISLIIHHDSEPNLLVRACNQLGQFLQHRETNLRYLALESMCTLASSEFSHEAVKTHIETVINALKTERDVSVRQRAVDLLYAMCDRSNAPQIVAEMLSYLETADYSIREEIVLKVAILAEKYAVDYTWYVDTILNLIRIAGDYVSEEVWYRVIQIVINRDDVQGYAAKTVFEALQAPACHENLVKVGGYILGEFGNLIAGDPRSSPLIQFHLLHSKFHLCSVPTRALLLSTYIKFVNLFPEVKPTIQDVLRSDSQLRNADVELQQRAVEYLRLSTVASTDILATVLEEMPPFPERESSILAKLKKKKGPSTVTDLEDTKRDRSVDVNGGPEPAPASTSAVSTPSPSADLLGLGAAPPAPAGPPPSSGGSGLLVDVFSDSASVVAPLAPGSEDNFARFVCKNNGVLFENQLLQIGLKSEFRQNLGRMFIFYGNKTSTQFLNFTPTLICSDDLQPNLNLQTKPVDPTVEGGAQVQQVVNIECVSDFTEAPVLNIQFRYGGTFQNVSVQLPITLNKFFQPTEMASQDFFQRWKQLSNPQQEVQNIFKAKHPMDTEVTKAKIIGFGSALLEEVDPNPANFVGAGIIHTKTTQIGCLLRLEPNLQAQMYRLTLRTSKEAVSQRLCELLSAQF
# UniProt Q13795: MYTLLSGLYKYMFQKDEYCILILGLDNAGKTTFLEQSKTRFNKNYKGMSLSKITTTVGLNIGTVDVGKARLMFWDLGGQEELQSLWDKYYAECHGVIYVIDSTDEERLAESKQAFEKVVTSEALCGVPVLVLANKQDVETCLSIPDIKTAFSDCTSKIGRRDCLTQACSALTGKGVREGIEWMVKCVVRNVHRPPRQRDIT
# UniProt Q9Y587: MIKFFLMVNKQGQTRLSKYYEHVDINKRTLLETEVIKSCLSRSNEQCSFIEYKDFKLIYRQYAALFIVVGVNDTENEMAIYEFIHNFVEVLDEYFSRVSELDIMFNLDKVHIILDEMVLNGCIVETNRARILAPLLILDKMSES
# UniProt Q9UJX6, whole entry, looked up: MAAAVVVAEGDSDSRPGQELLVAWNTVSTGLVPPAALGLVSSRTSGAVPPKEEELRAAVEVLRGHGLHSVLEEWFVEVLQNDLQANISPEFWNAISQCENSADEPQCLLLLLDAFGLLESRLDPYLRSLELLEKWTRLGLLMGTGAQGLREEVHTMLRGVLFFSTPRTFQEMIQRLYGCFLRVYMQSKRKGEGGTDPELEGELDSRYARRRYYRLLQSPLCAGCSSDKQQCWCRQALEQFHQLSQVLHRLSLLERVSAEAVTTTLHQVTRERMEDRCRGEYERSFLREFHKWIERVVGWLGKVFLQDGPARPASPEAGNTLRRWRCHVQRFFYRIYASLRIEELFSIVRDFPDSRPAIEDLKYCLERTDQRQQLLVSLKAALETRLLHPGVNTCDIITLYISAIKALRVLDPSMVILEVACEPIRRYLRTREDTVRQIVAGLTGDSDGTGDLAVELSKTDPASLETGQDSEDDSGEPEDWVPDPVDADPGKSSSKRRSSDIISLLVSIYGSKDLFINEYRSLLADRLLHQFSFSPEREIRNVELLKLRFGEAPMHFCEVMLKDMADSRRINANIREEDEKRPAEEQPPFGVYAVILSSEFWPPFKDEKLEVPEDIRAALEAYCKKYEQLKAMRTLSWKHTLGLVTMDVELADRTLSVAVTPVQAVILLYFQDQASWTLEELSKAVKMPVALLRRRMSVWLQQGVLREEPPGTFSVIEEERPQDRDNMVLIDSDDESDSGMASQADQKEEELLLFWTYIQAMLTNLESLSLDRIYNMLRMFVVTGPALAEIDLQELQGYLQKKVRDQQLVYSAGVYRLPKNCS
# UniProt Q96CW1: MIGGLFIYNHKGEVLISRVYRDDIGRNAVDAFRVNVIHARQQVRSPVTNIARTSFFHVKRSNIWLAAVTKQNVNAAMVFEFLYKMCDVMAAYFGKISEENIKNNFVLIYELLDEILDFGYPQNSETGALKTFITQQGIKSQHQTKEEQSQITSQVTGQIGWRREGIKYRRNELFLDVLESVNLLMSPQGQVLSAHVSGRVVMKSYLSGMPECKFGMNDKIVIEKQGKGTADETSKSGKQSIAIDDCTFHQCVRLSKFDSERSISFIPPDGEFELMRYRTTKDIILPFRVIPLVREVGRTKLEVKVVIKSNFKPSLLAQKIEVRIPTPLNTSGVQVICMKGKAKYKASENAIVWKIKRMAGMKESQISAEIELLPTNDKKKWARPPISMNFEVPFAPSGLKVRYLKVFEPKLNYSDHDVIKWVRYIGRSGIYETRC
# This is one part of the list.
# Key:
# Experiment in all cases: log2 fold change, soluble protein after heating vs DMSO (PISA); higher = thermal stabilisation; K562 cells, 10 uM, 30 min; active = over 0.2 and 3.5 SD of the protein, either way, in both replicates (recomputed)
# [1] = compound: CS(=O)(=O)c1ccc(-c2cnc(N)c(C(=O)Nc3ccccc3)n2)cc1
# How it was run: (§1)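 Soluble protein was defined as the supernatant after 21,000xg for 90 min. It came from K562 cells at 2×10^6 cells/mL given 10 μM compound for 30 min, heated in aliquots for 3 min across 48°C-58°C, pooled, and extracted in PBS with 0.5% NP-40 at 4°C, and was quantified by TMTpro 16plex LC-MS/MS with equalised channel sums. Thermal stability against control samples, from duplicates, is reported as log2 fold change.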
# [2] = compound: C[C@@H](Oc1cc(-c2cnn(C3CCNCC3)c2)cnc1N)c1c(Cl)ccc(F)c1Cl [crizotinib]
# How it was run: as §1
# [3] = compound: C[C@@H]1COCCN1C2=NC(=NC(=C2)C3(CC3)S(=O)(=O)C)C4=C5C=CNC5=CC=C4
# How it was run: as §1
# [4] = compound: C[C@H](C1=CC=C(C=C1)C(=O)NC2=C3C=CNC3=NC=C2)N
# How it was run: as §1
# [5] = compound: Cc1cc(Nc2cc(CN3CCOCC3)c3nc(C)c(Cc4ccc(Cl)cc4F)n3n2)n[nH]1 [gandotinib]
# How it was run: as §1
# [6] = compound: Cc1cc(SCc2sc(-c3ccc(C(F)(F)F)cc3)nc2C)ccc1OCC(=O)O
# How it was run: as §1
# [7] = compound: Cc1ccc(-n2nc(C(C)(C)C)cc2NC(=O)Nc2ccc(OCCN3CCOCC3)c3ccccc23)cc1 [doramapimod]
# How it was run: as §1
# [8] = compound: Cc1ccc(C(=O)N(CCCN)[C@@H](c2nc3cc(Cl)ccc3c(=O)n2Cc2ccccc2)C(C)C)cc1 [ispinesib]
# How it was run: as §1
# [9] = compound: Cc1ccc(NC(=O)c2ccc(CN3CC[C@H](N(C)C)C3)c(C(F)(F)F)c2)cc1Nc1nccc(-c2cncnc2)n1 [bafetinib]
# How it was run: as §1
# [10] = compound: Cc1cccc(CC(=O)N2CCc3c2ccc(-c2cn(C)c4ncnc(N)c24)c3F)n1
# How it was run: as §1
# [11] = compound: Cc1cn(-c2cc(NC(=O)c3ccc(C)c(Nc4nccc(-c5cccnc5)n4)c3)cc(C(F)(F)F)c2)cn1 [nilotinib]
# How it was run: as §1
# [12] = compound: Cc1nc(Nc2n[nH]c3c2CN(C(=O)N[C@H](CN(C)C)c2ccccc2)C3(C)C)c2sccc2n1
# How it was run: as §1
# [13] = compound: Cc1nc(Nc2ncc(C(=O)Nc3c(C)cccc3Cl)s2)cc(N2CCN(CCO)CC2)n1 [dasatinib]
# How it was run: as §1
# [14] = compound: Cc1ncc(-c2ccnc(Nc3ccc(S(C)(=O)=O)cc3)n2)n1C(C)C
# How it was run: as §1
# [15] = compound: Cn1cc(-c2ccc3c(c2)CCN3C(=O)Cc2cccc(C(F)(F)F)c2)c2c(N)ncnc21
# How it was run: as §1
# [16] = compound: Cn1cc(-c2ccc3nnc(C(F)(F)c4ccc5ncccc5c4)n3n2)cn1
# How it was run: as §1
# [17] = compound: Cn1cncc1[C@@](N)(c1ccc(Cl)cc1)c1ccc2c(c1)c(-c1cccc(Cl)c1)cc(=O)n2C [tipifarnib]
# How it was run: as §1
# [18] = compound: FC(F)(F)c1ccc(/C=C/c2nc(COc3ccc(CCCCn4ccnn4)cc3)co2)cc1 [mubritinib]
# How it was run: as §1
# [19] = compound: C[C@H](Nc1ncnc2nc[nH]c12)c1cc2cccc(Cl)c2c(=O)n1-c1ccccc1 [duvelisib]
# How it was run: as §1
# [20] = compound: Cc1cc(Nc2cc(N3CCN(C)CC3)nc(Sc3ccc(NC(=O)C4CC4)cc3)n2)n[nH]1 [tozasertib]
# How it was run: as §1
Target,log2 fold change [1],log2 fold change [2],log2 fold change [3],log2 fold change [4],log2 fold change [5],log2 fold change [6],log2 fold change [7],log2 fold change [8],log2 fold change [9],log2 fold change [10],log2 fold change [11],log2 fold change [12],log2 fold change [13],log2 fold change [14],log2 fold change [15],log2 fold change [16],log2 fold change [17],log2 fold change [18],log2 fold change [19],log2 fold change [20]
ARAF (UniProt P10398),inactive: 0.012,inactive: -0.093,inactive: 0.059,inactive: 0.112,inactive: 0.039,inactive: 0.081,inactive: -0.035,inactive: -0.051,inactive: -0.015,inactive: 0.01,inactive: -0.021,active: -0.236,inactive: -0.031,inactive: 0.009,inactive: 0.007,inactive: -0.003,inactive: 0.144,inactive: -0.092,,
ANP32E (UniProt Q9BTT0),inactive: -0.021,inactive: 0.055,inactive: 0.12,inactive: -0.16,inactive: -0.082,inactive: 0.026,inactive: -0.014,inactive: 0.002,inactive: 0.04,inactive: 0.146,inactive: -0.061,inactive: -0.123,inactive: 0.053,inactive: -0.104,inactive: 0.013,inactive: 0.027,inactive: 0.001,inactive: -0.047,,
AP2M1 (UniProt C9JTK4),inactive: 0.105,inactive: 0.048,inactive: 0.158,inactive: 0.08,,inactive: -0.03,inactive: 0.032,,inactive: -0.174,,inactive: -0.02,inactive: 0.212,inactive: 0.029,inactive: -0.161,inactive: -0.17,,,inactive: 0.08,,
APPL1 (UniProt Q9UKG1),inactive: -0.019,inactive: -0.015,inactive: -0.078,inactive: 0.034,inactive: 0.123,inactive: -0.003,inactive: 0.032,inactive: -0.098,inactive: -0.013,inactive: -0.092,inactive: -0.046,inactive: 0.161,inactive: -0.003,inactive: 0.002,inactive: 0.03,inactive: -0.001,inactive: -0.051,inactive: -0.029,,
ARF4 (UniProt P18085),inactive: 0.057,inactive: 0.081,inactive: 0.122,inactive: -0.018,inactive: -0.074,inactive: 0.017,inactive: -0.034,active: 0.254,inactive: 0.113,inactive: 0.01,inactive: -0.056,inactive: 0.015,inactive: -0.053,inactive: 0.088,inactive: 0.052,inactive: 0.038,inactive: -0.061,inactive: 0.02,,
ARFGEF1 (UniProt Q9Y6D6),inactive: 0.03,inactive: -0.135,inactive: 0.022,inactive: 0.052,inactive: -0.014,inactive: 0.004,inactive: 0.067,inactive: -0.024,inactive: 0.052,inactive: 0.006,inactive: -0.024,inactive: 0.014,inactive: -0.026,inactive: 0.008,inactive: 0.005,inactive: 0.047,inactive: 0.009,inactive: -0.021,,
ANPEP (UniProt P15144),inactive: 0.047,inactive: 0.151,,inactive: -0.103,inactive: -0.095,inactive: -0.007,inactive: 0.117,inactive: 0.091,,inactive: 0.058,inactive: -0.071,inactive: -0.399,inactive: 0.01,inactive: -0.013,inactive: 0.158,inactive: -0.023,inactive: 0.051,inactive: 0.006,inactive: 0.004,inactive: -0.115
ARFIP1 isoform 2 (UniProt P53367),inactive: -0.03,inactive: -0.266,inactive: 0.047,,inactive: -0.112,inactive: 0.081,inactive: 0.087,,inactive: -0.281,inactive: -0.195,inactive: -0.147,inactive: -0.049,inactive: -0.316,inactive: -0.013,,,inactive: -0.024,inactive: -0.004,,
ANKFY1 isoform 4 (UniProt Q9P2R3),inactive: -0.098,inactive: -0.007,inactive: -0.24,inactive: 0.085,inactive: -0.029,,inactive: 0.048,inactive: -0.171,inactive: 0,inactive: 0.107,inactive: 0.088,inactive: -0.313,,inactive: 0.027,inactive: -0.01,inactive: -0.011,inactive: 0.014,inactive: -0.057,,inactive: 0.122
AP2S1 (UniProt P53680),inactive: -0.022,inactive: -0.106,inactive: 0.453,inactive: -0.151,inactive: -0.046,inactive: 0.046,inactive: 0.031,inactive: 0.077,inactive: 0.023,inactive: -0.01,inactive: -0.019,inactive: -0.009,inactive: -0.011,inactive: -0.082,inactive: -0.057,inactive: 0.004,inactive: -0.04,inactive: -0.001,,
APOB (UniProt P04114),inactive: 0.066,inactive: -0.443,inactive: 0.083,inactive: -0.203,inactive: -0.198,inactive: 0.007,inactive: -0.288,active: -0.55,inactive: -0.316,inactive: 0.032,inactive: -0.132,inactive: 0.013,inactive: -0.213,inactive: 0.051,inactive: 0.071,inactive: -0.021,inactive: -0.203,inactive: 0.011,,
ANKRD46 (UniProt Q86W74),inactive: 0.009,,inactive: 0.047,inactive: -0.048,inactive: -0.047,inactive: 0.069,,inactive: 0.063,inactive: -0.185,inactive: -0.147,inactive: 0.231,inactive: -0.086,inactive: -0.019,inactive: 0.297,inactive: 0.104,inactive: -0.105,inactive: 0.064,inactive: 0.185,inactive: 0.038,inactive: 0
AP2A2 isoform 2 (UniProt O94973),inactive: 0.022,inactive: -0.076,inactive: -0.033,inactive: -0.186,inactive: -0.057,inactive: -0.021,inactive: 0.03,inactive: 0.024,inactive: 0.02,inactive: 0.031,inactive: -0.027,inactive: 0.009,inactive: 0.062,inactive: -0.018,inactive: 0.006,inactive: -0.074,inactive: -0.006,inactive: 0.035,,
ANLN (UniProt Q9NQW6),inactive: 0.125,inactive: -0.017,inactive: 0.077,,inactive: -0.054,inactive: -0.015,inactive: -0.009,inactive: 0.008,inactive: 0.02,inactive: 0.092,inactive: -0.297,inactive: 0.037,inactive: 0.005,inactive: -0.393,,inactive: 0.137,inactive: -0.09,inactive: 0.019,inactive: 0.061,
ARFRP1 (UniProt Q13795),inactive: -0.024,inactive: -0.004,inactive: 0.091,inactive: -0.027,inactive: -0.159,inactive: -0.069,inactive: 0.003,inactive: 0.027,inactive: 0.025,active: 0.327,inactive: -0.061,inactive: -0.014,inactive: -0.017,inactive: 0.112,inactive: 0.11,inactive: -0.003,inactive: -0.069,inactive: -0.019,,
APOL2 (UniProt J3KQL8),inactive: 0.102,,inactive: 0,inactive: -0.022,inactive: -0.064,inactive: 0.096,,,inactive: 0.131,inactive: 0.041,inactive: 0.009,inactive: -0.082,inactive: 0.059,inactive: 0,inactive: 0.016,,inactive: 0.295,inactive: 0.143,inactive: -0.064,inactive: -0.038
AP4S1 (UniProt Q9Y587),inactive: -0.027,inactive: -0.028,inactive: 0.065,inactive: 0.133,,inactive: 0.013,inactive: -0.088,,inactive: 0.068,,inactive: -0.015,inactive: -0.016,inactive: -0.036,inactive: 0.072,inactive: -0.103,,inactive: 0.076,inactive: -0.013,,
ANAPC2 (UniProt Q9UJX6),inactive: -0.025,inactive: -0.084,inactive: 0.034,inactive: 0.035,inactive: -0.044,inactive: 0.028,inactive: 0.022,inactive: -0.02,inactive: -0.048,inactive: 0.024,inactive: -0.004,inactive: -0.053,inactive: -0.04,inactive: 0.003,inactive: -0.005,inactive: -0.036,inactive: -0.005,inactive: 0.049,,
AP2M1 (UniProt Q96CW1),inactive: 0.018,inactive: -0.066,inactive: -0.04,inactive: -0.193,inactive: -0.002,inactive: -0.007,inactive: 0.029,inactive: 0.044,inactive: 0.042,inactive: -0.012,inactive: 0.012,inactive: 0.031,inactive: 0.048,inactive: -0.02,inactive: -0.013,inactive: -0.004,inactive: 0.02,inactive: -0.035,,

# Quoted at random: 2 entries already listed.
Target,log2 fold change [1],log2 fold change [2],log2 fold change [3],log2 fold change [4],log2 fold change [5],log2 fold change [6],log2 fold change [7],log2 fold change [8],log2 fold change [9],log2 fold change [10],log2 fold change [11],log2 fold change [12],log2 fold change [13],log2 fold change [14],log2 fold change [15],log2 fold change [16],log2 fold change [17],log2 fold change [18],log2 fold change [19],log2 fold change [20]
ANLN (UniProt Q9NQW6),inactive: 0.125,inactive: -0.017,inactive: 0.077,,inactive: -0.054,inactive: -0.015,inactive: -0.009,inactive: 0.008,inactive: 0.02,inactive: 0.092,inactive: -0.297,inactive: 0.037,inactive: 0.005,inactive: -0.393,,inactive: 0.137,inactive: -0.09,inactive: 0.019,inactive: 0.061,
ANKRD46 (UniProt Q86W74),inactive: 0.009,,inactive: 0.047,inactive: -0.048,inactive: -0.047,inactive: 0.069,,inactive: 0.063,inactive: -0.185,inactive: -0.147,inactive: 0.231,inactive: -0.086,inactive: -0.019,inactive: 0.297,inactive: 0.104,inactive: -0.105,inactive: 0.064,inactive: 0.185,inactive: 0.038,inactive: 0
